Source: publication PMC4014440
These are yes or no findings as the source states them, for the method shown. Binding seen in cells or lysates may run through a third protein. Some entries that bind do so weakly or less than the wild type. Where a sequence is shown, tags or fusion partners need not be part of it.

By UniProt entry, the sequences of proteins in these tests, tags left out.
UniProt Q17551: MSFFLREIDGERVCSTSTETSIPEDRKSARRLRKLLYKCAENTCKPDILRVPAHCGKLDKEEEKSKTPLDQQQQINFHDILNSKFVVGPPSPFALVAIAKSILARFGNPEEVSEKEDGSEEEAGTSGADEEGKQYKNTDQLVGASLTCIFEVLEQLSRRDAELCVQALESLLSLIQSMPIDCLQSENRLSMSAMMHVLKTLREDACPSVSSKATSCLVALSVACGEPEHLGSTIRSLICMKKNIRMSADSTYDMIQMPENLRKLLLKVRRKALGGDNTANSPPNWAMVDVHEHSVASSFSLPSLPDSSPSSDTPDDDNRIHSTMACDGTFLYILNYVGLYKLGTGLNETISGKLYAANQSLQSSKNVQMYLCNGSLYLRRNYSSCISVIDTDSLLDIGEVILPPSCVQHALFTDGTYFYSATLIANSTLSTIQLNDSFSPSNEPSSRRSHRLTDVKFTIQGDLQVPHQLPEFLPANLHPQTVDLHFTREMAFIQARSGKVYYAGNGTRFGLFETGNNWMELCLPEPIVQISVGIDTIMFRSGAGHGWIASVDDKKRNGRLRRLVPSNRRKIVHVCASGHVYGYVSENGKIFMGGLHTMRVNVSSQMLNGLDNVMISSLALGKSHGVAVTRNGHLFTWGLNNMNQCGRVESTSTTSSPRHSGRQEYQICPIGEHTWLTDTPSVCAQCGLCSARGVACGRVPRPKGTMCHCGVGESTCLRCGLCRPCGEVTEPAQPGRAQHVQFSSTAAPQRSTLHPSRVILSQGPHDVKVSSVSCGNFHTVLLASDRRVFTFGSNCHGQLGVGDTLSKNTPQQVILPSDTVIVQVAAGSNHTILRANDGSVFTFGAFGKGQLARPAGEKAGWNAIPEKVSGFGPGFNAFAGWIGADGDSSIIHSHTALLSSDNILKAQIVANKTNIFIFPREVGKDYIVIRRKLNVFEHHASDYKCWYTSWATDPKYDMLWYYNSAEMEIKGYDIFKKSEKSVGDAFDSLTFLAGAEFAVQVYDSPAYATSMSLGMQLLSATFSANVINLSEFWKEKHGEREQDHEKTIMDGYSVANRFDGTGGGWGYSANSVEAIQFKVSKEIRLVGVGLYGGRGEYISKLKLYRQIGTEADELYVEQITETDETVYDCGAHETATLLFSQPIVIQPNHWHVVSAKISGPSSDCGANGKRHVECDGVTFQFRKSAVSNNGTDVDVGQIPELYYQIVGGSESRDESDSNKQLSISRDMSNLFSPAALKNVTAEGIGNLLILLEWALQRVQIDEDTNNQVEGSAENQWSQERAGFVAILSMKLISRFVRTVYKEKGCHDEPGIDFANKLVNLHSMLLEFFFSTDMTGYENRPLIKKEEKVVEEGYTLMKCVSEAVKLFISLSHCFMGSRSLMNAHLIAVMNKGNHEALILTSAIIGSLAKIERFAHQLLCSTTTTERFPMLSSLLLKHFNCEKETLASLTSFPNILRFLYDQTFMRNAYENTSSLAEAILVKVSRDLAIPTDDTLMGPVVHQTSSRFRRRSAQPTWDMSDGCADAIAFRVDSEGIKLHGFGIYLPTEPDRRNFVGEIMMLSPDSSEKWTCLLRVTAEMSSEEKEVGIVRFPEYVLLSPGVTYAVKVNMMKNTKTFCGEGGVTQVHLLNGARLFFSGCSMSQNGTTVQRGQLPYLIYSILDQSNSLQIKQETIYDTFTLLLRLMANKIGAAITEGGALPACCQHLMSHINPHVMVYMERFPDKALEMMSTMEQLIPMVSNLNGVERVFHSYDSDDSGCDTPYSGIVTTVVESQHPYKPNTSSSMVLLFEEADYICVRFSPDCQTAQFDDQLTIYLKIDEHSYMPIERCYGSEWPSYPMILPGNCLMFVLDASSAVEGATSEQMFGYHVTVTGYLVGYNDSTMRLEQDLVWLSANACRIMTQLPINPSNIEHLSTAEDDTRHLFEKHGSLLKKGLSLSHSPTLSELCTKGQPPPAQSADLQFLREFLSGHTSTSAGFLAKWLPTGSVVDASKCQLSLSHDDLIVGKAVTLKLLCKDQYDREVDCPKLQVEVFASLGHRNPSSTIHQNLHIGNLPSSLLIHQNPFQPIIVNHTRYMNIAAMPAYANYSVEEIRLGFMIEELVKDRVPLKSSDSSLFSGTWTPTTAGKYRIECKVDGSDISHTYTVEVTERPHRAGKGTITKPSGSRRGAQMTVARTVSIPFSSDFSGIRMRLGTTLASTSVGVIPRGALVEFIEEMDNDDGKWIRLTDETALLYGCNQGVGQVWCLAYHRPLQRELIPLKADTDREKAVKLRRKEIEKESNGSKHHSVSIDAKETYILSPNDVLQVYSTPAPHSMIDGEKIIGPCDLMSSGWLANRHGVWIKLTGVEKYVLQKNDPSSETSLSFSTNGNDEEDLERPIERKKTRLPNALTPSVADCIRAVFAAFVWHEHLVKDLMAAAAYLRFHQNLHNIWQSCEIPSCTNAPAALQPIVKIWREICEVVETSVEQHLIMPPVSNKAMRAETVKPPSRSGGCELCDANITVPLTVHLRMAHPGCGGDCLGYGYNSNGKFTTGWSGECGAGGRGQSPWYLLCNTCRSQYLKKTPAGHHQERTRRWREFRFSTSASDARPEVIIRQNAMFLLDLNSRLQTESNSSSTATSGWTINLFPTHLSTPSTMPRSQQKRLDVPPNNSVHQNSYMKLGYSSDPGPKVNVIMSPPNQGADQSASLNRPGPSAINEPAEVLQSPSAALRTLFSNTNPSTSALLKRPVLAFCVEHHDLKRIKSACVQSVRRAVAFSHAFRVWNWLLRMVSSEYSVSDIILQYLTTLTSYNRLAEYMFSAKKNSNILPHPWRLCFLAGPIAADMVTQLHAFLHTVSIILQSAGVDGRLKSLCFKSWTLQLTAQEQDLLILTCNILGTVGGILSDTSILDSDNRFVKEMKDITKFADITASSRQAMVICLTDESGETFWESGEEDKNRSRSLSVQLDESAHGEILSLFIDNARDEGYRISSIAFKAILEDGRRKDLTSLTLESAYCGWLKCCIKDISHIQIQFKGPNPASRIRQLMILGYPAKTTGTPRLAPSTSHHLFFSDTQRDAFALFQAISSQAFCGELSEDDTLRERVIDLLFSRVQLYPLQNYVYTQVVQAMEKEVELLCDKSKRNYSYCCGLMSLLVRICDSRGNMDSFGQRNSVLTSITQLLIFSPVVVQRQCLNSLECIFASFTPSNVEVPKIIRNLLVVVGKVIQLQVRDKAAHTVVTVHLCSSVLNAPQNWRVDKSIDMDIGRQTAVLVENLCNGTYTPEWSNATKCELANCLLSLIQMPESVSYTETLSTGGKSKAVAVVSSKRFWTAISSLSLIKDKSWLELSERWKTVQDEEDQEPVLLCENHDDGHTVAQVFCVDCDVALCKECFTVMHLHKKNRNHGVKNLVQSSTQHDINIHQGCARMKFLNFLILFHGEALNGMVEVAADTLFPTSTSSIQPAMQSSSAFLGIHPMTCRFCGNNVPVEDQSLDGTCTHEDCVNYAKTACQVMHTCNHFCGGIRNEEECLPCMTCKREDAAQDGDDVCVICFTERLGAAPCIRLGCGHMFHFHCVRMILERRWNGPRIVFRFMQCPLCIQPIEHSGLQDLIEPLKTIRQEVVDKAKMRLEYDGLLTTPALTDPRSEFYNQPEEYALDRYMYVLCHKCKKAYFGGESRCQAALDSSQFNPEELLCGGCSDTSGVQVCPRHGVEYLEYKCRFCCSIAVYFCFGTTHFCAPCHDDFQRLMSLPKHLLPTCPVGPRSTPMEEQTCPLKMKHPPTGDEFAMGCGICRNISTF

Molecular target: T1, FLAG epitope tagged PPM-2 (FLAG::PPM-2) (C. elegans) (UniProt P49596)
T1 sequence: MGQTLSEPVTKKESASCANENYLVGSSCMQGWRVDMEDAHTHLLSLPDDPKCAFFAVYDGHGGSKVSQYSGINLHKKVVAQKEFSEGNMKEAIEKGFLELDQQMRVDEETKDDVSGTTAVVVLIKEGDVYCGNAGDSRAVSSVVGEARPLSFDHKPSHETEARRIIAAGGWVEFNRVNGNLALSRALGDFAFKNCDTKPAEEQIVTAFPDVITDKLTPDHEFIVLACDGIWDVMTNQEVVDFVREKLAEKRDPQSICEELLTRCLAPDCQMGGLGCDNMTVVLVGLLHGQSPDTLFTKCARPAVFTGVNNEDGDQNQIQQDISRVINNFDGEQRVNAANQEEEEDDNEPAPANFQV
Test: co-IP; FLAG::PPM-2 immunoprecipitated with anti-FLAG antibody (M2) and protein G agarose from 3 mg of transgenic whole worm lysate (50 mM Tris pH 7.5, 0.1% NP-40, 150 mM NaCl, 10% glycerol); RPM-1::GFP detected by anti-GFP immunoblot

Q: Which binding does the source give for “RPM-1::GFP (fusion protein of Regulator of Presynaptic Morphology 1 and GFP) (from UniProt Q17551 1-3766)” here?
A: binds
